{"source": "PubChem BioAssay AID344", "about": "(DTP/NCI, 2004)", "system": "mice, LPC-1 plasma cell tumor ip, median survival T/C", "assay": "NCI In Vivo Anticancer Drug Screen. Data for tumor model Lieberman Plasma Cell No. 1 (LPC-1) (intraperitoneal) in unknown mice", "conditions": "T/C endpoint: median survival time, higher T/C = longer survival", "procedure": "The antitumor activity of compounds was measured in mice bearing transplantable tumors. Survival or tumor size were measured and the results are expressed as the measurement made in the treated group (T) divided by the measurement made in the vehicle treated control group (C). The tumor model used in this assay is Lieberman Plasma Cell No. 1 (LPC-1) (intraperitoneal) in unknown mice", "note": "The list is a part of this screen's results and no random one: it gathers tests that were run many times, whatever their T/C, doses with no T/C, and many T/C values between a quarter and a half above the control. Further doses and runs are listed elsewhere. T/C: endpoint of the treated group in % of that of the vehicle group. Some doses have a count of surviving animals in place of a T/C: the source files T/C as zero there, which appears to mark a toxic dose or a test without result, not a measured value. Some doses without a T/C left all or most animals alive at the check, yet need not have been tolerated: survival well below the control is almost never listed, so the zero probably covers shortened survival too. Counts of survivors are from the toxicity check (mostly the fifth day) where no day follows; animals may have died later. Schedules are NCI's codes, taken here to give the interval after Q, in days (D) or hours (H), and the number of doses after X. Some schedules carry Z or #; the key to these is not given. Where survival is the endpoint, this PubChem deposit counts one and a half times the control or more as active, and values a quarter to a half above the control carry no call in these data; other NCI protocols may use other cut-offs. Some T/C values carry the count of animals alive at the toxicity check (mostly the fifth day); where none is given, no animal had died by that day. Some entries were tested several times; the values are given in rising order."}
{"molecule": "COc1cc2c(c3c1c(=O)c1ccccc1n3C)C=CC(C)(C)O2", "values": [{"measurement": "T/C", "setting": "dose: 12.0 mg/kg/injection, schedule: Q03HX008 (sc), vehicle: other", "value": "133 % of control [9 of 10 alive]"}, {"measurement": "T/C", "setting": "dose: 12.0 mg/kg/injection, schedule: Q03HX024 (sc), vehicle: other", "value": "128 % of control [7 of 10 alive]"}, {"measurement": "T/C", "setting": "dose: 14.0 mg/kg/injection, schedule: Q01DX028 (sc), vehicle: other", "value": "135 % of control"}, {"measurement": "T/C", "setting": "dose: 18.0 mg/kg/injection, schedule: Q03HX024 (sc), vehicle: other", "value": "138 % of control [8 of 10 alive]"}, {"measurement": "T/C", "setting": "dose: 18.75 mg/kg/injection, schedule: Q03HX008 (oral), vehicle: steroid suspending solution", "value": "125 % of control [7 of 8 alive]"}, {"measurement": "T/C", "setting": "dose: 18.75 mg/kg/injection, schedule: Q03HX024 (ip), vehicle: steroid suspending solution", "value": "128 % of control"}, {"measurement": "T/C", "setting": "dose: 27.0 mg/kg/injection, schedule: Q01DX021 (sc), vehicle: other", "value": "135 % of control [8 of 10 alive]"}, {"measurement": "survivor count", "setting": "dose: 30.0 mg/kg/injection, schedule: Q01DX020 (oral), vehicle: saline", "value": "4 of 8"}, {"measurement": "survivor count", "setting": "dose: 37.5 mg/kg/injection, schedule: Q03HX008 (ip), vehicle: steroid suspending solution", "value": "2 of 8"}, {"measurement": "survivor count", "setting": "dose: 37.5 mg/kg/injection, schedule: Q03HX024 (ip), vehicle: steroid suspending solution", "value": "1 of 8"}, {"measurement": "T/C", "setting": "dose: 39.0 mg/kg/injection, schedule: Q01DX028 (sc), vehicle: other", "value": "129 % of control"}, {"measurement": "T/C", "setting": "dose: 40.0 mg/kg/injection, schedule: Q01DX005 (sc), vehicle: other", "value": "135 % of control [9 of 10 alive]"}, {"measurement": "T/C", "setting": "dose: 40.0 mg/kg/injection, schedule: Q04DX003 (sc), vehicle: other", "value": "126 % of control [8 of 10 alive]"}, {"measurement": "survivor count", "setting": "dose: 44.0 mg/kg/injection, schedule: Q01DX020 (oral), vehicle: saline", "value": "4 of 8"}, {"measurement": "survivor count", "setting": "dose: 49.0 mg/kg/injection, schedule: Q03HX024 (sc), vehicle: steroid suspending solution", "value": "5 of 8"}, {"measurement": "T/C", "setting": "dose: 60.0 mg/kg/injection, schedule: Q01DX005 (sc), vehicle: other", "value": "128 % of control"}, {"measurement": "T/C", "setting": "dose: 65.0 mg/kg/injection, schedule: Q01DX028 (sc), vehicle: other", "value": "140 % of control"}, {"measurement": "survivor count", "setting": "dose: 66.0 mg/kg/injection, schedule: Q01DX020 (oral), vehicle: saline", "value": "5 of 8"}, {"measurement": "survivor count", "setting": "dose: 70.0 mg/kg/injection, schedule: Q03HX008 (sc), vehicle: steroid suspending solution", "value": "5 of 8"}, {"measurement": "T/C", "setting": "dose: 75.0 mg/kg/injection, schedule: Q01DX001 (oral), vehicle: steroid suspending solution", "value": "137 % of control"}, {"measurement": "survivor count", "setting": "dose: 75.0 mg/kg/injection, schedule: Q03HX008 (ip), vehicle: steroid suspending solution", "value": "4 of 8"}, {"measurement": "survivor count", "setting": "dose: 75.0 mg/kg/injection, schedule: Q03HX024 (ip), vehicle: steroid suspending solution", "value": "3 of 8"}, {"measurement": "T/C", "setting": "dose: 75.0 mg/kg/injection, schedule: Q## X008 (oral), vehicle: other", "value": "132 % of control [7 of 8 alive]"}, {"measurement": "T/C", "setting": "dose: 90.0 mg/kg/injection, schedule: Q01DX001 (sc), vehicle: other", "value": "133 % of control"}, {"measurement": "T/C", "setting": "dose: 90.0 mg/kg/injection, schedule: Q01DX021 (sc), vehicle: other", "value": "147 % of control [9 of 10 alive]"}, {"measurement": "T/C", "setting": "dose: 90.0 mg/kg/injection, schedule: Q04DX003 (sc), vehicle: other", "value": "138 % of control"}, {"measurement": "T/C", "setting": "dose: 95.0 mg/kg/injection, schedule: Q03HX024 (sc), vehicle: other", "value": "143 [7 of 10 alive] and 143 % of control [8 of 10 alive]"}, {"measurement": "T/C", "setting": "dose: 100.0 mg/kg/injection, schedule: Q03HX008 (sc), vehicle: steroid suspending solution", "value": "146 % of control [7 of 8 alive]"}, {"measurement": "T/C", "setting": "dose: 100.0 mg/kg/injection, schedule: Q03HX024 (sc), vehicle: steroid suspending solution", "value": "137 % of control"}, {"measurement": "survivor count", "setting": "dose: 108.0 mg/kg/injection, schedule: Q01DX028 (sc), vehicle: other", "value": "5 of 8"}, {"measurement": "T/C", "setting": "dose: 142.0 mg/kg/injection, schedule: Q03HX024 (sc), vehicle: other", "value": "131 % of control [9 of 10 alive]"}, {"measurement": "survivor count", "setting": "dose: 150.0 mg/kg/injection, schedule: Q01DX001 (oral), vehicle: saline", "value": "3 of 8"}, {"measurement": "survivor count", "setting": "dose: 150.0 mg/kg/injection, schedule: Q03HX008 (ip), vehicle: steroid suspending solution", "value": "4 of 8"}, {"measurement": "T/C", "setting": "dose: 150.0 mg/kg/injection, schedule: Q03HX008 (oral), vehicle: steroid suspending solution", "value": "131 % of control [6 of 8 alive]"}, {"measurement": "survivor count", "setting": "dose: 150.0 mg/kg/injection, schedule: Q03HX024 (ip), vehicle: steroid suspending solution", "value": "4 of 8"}, {"measurement": "T/C", "setting": "dose: 150.0 mg/kg/injection, schedule: Q## X008 (oral), vehicle: other", "value": "138 % of control [7 of 8 alive]"}, {"measurement": "T/C", "setting": "dose: 292.0 mg/kg/injection, schedule: Q01DX001 (sc), vehicle: steroid suspending solution", "value": "125 % of control"}, {"measurement": "T/C", "setting": "dose: 300.0 mg/kg/injection, schedule: Q01DX001 (ip), vehicle: steroid suspending solution", "value": "128 % of control [7 of 8 alive]"}, {"measurement": "survivor count", "setting": "dose: 300.0 mg/kg/injection, schedule: Q01DX001 (oral), vehicle: saline", "value": "1 of 8"}, {"measurement": "T/C", "setting": "dose: 300.0 mg/kg/injection, schedule: Q01DX001 (oral), vehicle: steroid suspending solution", "value": "128 % of control"}, {"measurement": "T/C", "setting": "dose: 320.0 mg/kg/injection, schedule: Q03HX024 (sc), vehicle: other", "value": "128 % of control [7 of 10 alive]"}, {"measurement": "T/C", "setting": "dose: 417.0 mg/kg/injection, schedule: Q01DX001 (sc), vehicle: steroid suspending solution", "value": "128 % of control"}, {"measurement": "survivor count", "setting": "dose: 440.0 mg/kg/injection, schedule: Q01DX001 (oral), vehicle: saline", "value": "1 of 8"}, {"measurement": "T/C", "setting": "dose: 528.0 mg/kg/injection, schedule: Q## X024 (sc), vehicle: steroid suspending solution", "value": "132 % of control"}, {"measurement": "T/C", "setting": "dose: 596.0 mg/kg/injection, schedule: Q01DX001 (sc), vehicle: steroid suspending solution", "value": "131 % of control"}, {"measurement": "T/C", "setting": "dose: 600.0 mg/kg/injection, schedule: Q01DX001 (oral), vehicle: steroid suspending solution", "value": "134 % of control"}, {"measurement": "survivor count", "setting": "dose: 600.0 mg/kg/injection, schedule: Q## X008 (oral), vehicle: other", "value": "3 of 8"}, {"measurement": "survivor count", "setting": "dose: 600.0 mg/kg/injection, schedule: Q## X008 (oral), vehicle: steroid suspending solution", "value": "5 of 8"}, {"measurement": "survivor count", "setting": "dose: 660.0 mg/kg/injection, schedule: Q01DX001 (oral), vehicle: saline", "value": "1 of 8"}, {"measurement": "T/C", "setting": "dose: 800.0 mg/kg/injection, schedule: Q## X008 (sc), vehicle: steroid suspending solution", "value": "128 % of control"}, {"measurement": "T/C", "setting": "dose: 1136.0 mg/kg/injection, schedule: Q## X024 (sc), vehicle: steroid suspending solution", "value": "146 % of control"}, {"measurement": "survivor count", "setting": "dose: 1200.0 mg/kg/injection, schedule: Q## X008 (oral), vehicle: steroid suspending solution", "value": "3 of 8"}, {"measurement": "survivor count", "setting": "dose: 1200.0 mg/kg/injection, schedule: Q## X024 (oral), vehicle: steroid suspending solution", "value": "5 of 8"}, {"measurement": "T/C", "setting": "dose: 1712.0 mg/kg/injection, schedule: Q## X008 (sc), vehicle: steroid suspending solution", "value": "132 % of control"}, {"measurement": "survivor count", "setting": "dose: 2400.0 mg/kg/injection, schedule: Q## X008 (oral), vehicle: steroid suspending solution", "value": "2 of 8"}, {"measurement": "survivor count", "setting": "dose: 2400.0 mg/kg/injection, schedule: Q## X024 (oral), vehicle: steroid suspending solution", "value": "0 of 8"}, {"measurement": "survivor count", "setting": "dose: 4800.0 mg/kg/injection, schedule: Q## X008 (oral), vehicle: steroid suspending solution", "value": "0 of 8"}, {"measurement": "survivor count", "setting": "dose: 4800.0 mg/kg/injection, schedule: Q## X024 (oral), vehicle: steroid suspending solution", "value": "0 of 8"}]}
{"molecule": "OC(CBr)C(O)C(O)C(O)CBr", "note": "(stereo unspecified)", "values": [{"measurement": "T/C", "setting": "dose: 250.0 mg/kg/injection, schedule: Q01DX028 (sc), vehicle: carboxymethylcellulose (CMC)", "value": "126 % of control [7 of 8 alive]"}]}
{"molecule": "CN(C)c1nc(N(C)C)nc(N(C)C)n1", "values": [{"measurement": "survivor count", "setting": "dose: 100.0 mg/kg/injection, schedule: Q01DX009 (ip), vehicle: olive oil, sesame oil, peanut oil", "value": "3 of 6"}, {"measurement": "survivor count", "setting": "dose: 200.0 mg/kg/injection, schedule: Q01DX009 (ip), vehicle: olive oil, sesame oil, peanut oil", "value": "5 of 6"}, {"measurement": "survivor count", "setting": "dose: 400.0 mg/kg/injection, schedule: Q01DX009 (ip), vehicle: olive oil, sesame oil, peanut oil", "value": "0 of 6"}, {"measurement": "survivor count", "setting": "dose: 800.0 mg/kg/injection, schedule: Q01DX009 (ip), vehicle: olive oil, sesame oil, peanut oil", "value": "0 of 6"}, {"measurement": "T/C", "setting": "dose: 800.0 mg/kg/injection, schedule: Q01DX009 (ip), vehicle: other", "value": "136 % of control"}, {"measurement": "survivor count", "setting": "dose: 1200.0 mg/kg/injection, schedule: Q01DX009 (ip), vehicle: olive oil, sesame oil, peanut oil", "value": "0 of 6"}, {"measurement": "survivor count", "setting": "dose: 1600.0 mg/kg/injection, schedule: Q01DX009 (ip), vehicle: olive oil, sesame oil, peanut oil", "value": "0 of 6"}]}
